# Measurements from PubChem BioAssay AID504467 (National Center for Advancing Translational Sciences (NCATS), 2011).
# Hit rate of the full screen: of about 330,000 compounds, about 7,700 (2.3%) were called active. Inconclusive means that the source gave no clear call. Such entries were picked first, then a sample of the others. Calls come from the whole dose curve; as a rule, active = well fitted inhibition curve with a large enough effect; inconclusive = small, poorly fitted or top-dose-only effect, or effect the other way; inactive = flat fitted curve, though single readings scatter. Where the call is inconclusive, the potency comes from a doubtful curve fit.
# Experiment: qHTS screen for small molecules that inhibit ELG1-dependent DNA repair in human embryonic kidney (HEK293T) cells expressing luciferase-tagged ELG1; note: nearly all actives have a fitted effect of over 55% in size
# Details: HEK293T ELG1-luciferase reporter, luminescence, 16 h, DNA damage induced by 5-fluorouridine; activity change, negative = inhibition: at 46.1 µM (top of the series)
# Outline: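 DMSO vehicle served as the neutral condition. Each well held 2,000 cells given 5-fluorouridine plus compound; after 16 hr at 37 °C/5% CO2, ONE-Glo was added and luciferase measured 30 min later.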
# % is set by controls: 0 for no effect and ±100 for the full control effect; potency is the fitted concentration of half-maximal effect.
SMILES,Potency,"activity change, negative = inhibition"
CCCC(=O)Nc1ccc2c(c1)nc1n2CCSC1,"inconclusive: 16.4 µM [activator, partial curve]",–
CC(C)(C)c1ccc(C(=O)c2c[nH]c(C(=O)NCc3cccs3)c2)cc1,"inconclusive: 20.6 µM [activator, single point]",–
CCC(=O)Nc1cccc(-n2nnnc2SCC(=O)N(C(C)C)C(C)C)c1,"inconclusive: 29.1 µM [inhibitor, single point]",–
CC1Cc2ccccc2N1C(=S)Nc1ccc(S(N)(=O)=O)cc1 (stereo not given),–,inactive: -23.3%
CCOC(=O)C1(Cc2cccc(OC)c2)CCCN(C(=O)CCc2cccnc2)C1 (stereo not given),"inconclusive: 29.1 µM [activator, single point]",–
Cc1ccc(C(=O)NC2CC(=O)N(c3ccc4c(c3)OCCO4)C2)cc1[N+](=O)[O-] (stereo not given),"inconclusive: 5.8 µM [inhibitor, single point]",–
Cc1ccc(S(=O)(=O)N2CCC(C(=O)Nc3nnc(-c4ccc(F)cc4)s3)CC2)cc1,"inconclusive: 18.4 µM [activator, single point]",–
Cc1cccc(N2CCN(C(=S)c3ccc([N+](=O)[O-])cc3)CC2)c1,–,inactive: -7.93%
CCOC(=O)c1[nH]c(CO)c(C(=O)OCC)c1C,"inconclusive: 13 µM [activator, partial curve, poor fit]",–
COC(=O)CN1C(=O)S/C(=C/c2ccc(N3CCCCC3)o2)C1=O,"inconclusive: 20.6 µM [activator, partial curve]",–
COc1ccccc1N1C(=O)CC(N2CCN(c3ccc([N+](=O)[O-])cc3)CC2)C1=O (stereo not given),–,inactive: 3.61%
COc1ccc(CC(=O)N2CCN(C(=O)c3ccco3)CC2)cc1,–,inactive: 7.95%
Nc1nc(N)nc(COc2ccccc2)n1,"inconclusive: 11.6 µM [activator, partial curve]",–
COc1ccc(/C=C/c2nc3ccccc3n2Cc2ccccc2OC)cc1,"inconclusive: 2.31 µM [activator, partial curve]",–
CC(=O)NCCn1c(SCc2cc(F)ccc2F)nc2ccccc2c1=O,–,inactive: 14.8%
NC(=O)C(c1ccc(F)cc1)c1ccc(C(=O)c2ccccc2)cc1 (stereo not given),"inconclusive: 32.6 µM [inhibitor, partial curve, poor fit]",–
O=C(/C=C/c1cccs1)NNC(=O)c1ccccc1,"inconclusive: 18.3 µM [activator, single point]",–
COc1ccc(OC)c(C2C=C(C34CC5CC(CC(C5)C3)C4)NC(=S)N2)c1 (stereo not given),"inconclusive: 10.3 µM [inhibitor, partial curve, poor fit]",–
CCSc1nnc(CNC(=O)C23CC4CC(CC(C4)C2)C3)n1C1CCCCC1,–,inactive: 0.761%
CCCCn1nc(C(=O)Nc2ccc(-n3cnnn3)cc2)c2ccccc2c1=O,active: 7.3 µM,–
CCS(=O)(=O)c1ccc(O)c(NC(=O)/C=C/c2ccccc2)c1,"inconclusive: 20.6 µM [activator, partial curve]",–
Cc1ccc(-c2ccc(CCC(=O)O)n2-c2cccc(C(=O)O)c2)cc1,"inconclusive: 16.4 µM [activator, single point]",–
CC1(C)Oc2ccc3ccc(=O)oc3c2/C(=C/NC2CCCCC2)C1=O,"inconclusive: 29.1 µM [inhibitor, single point]",–

# Arranged by number of heavy atoms (rising): part of the list above.
SMILES,Potency,"activity change, negative = inhibition"
CC1Cc2ccccc2N1C(=S)Nc1ccc(S(N)(=O)=O)cc1 (stereo not given),–,inactive: -23.3%
Cc1ccc(-c2ccc(CCC(=O)O)n2-c2cccc(C(=O)O)c2)cc1,"inconclusive: 16.4 µM [activator, single point]",–
CCC(=O)Nc1cccc(-n2nnnc2SCC(=O)N(C(C)C)C(C)C)c1,"inconclusive: 29.1 µM [inhibitor, single point]",–

# Additional compounds

SMILES,Potency,"activity change, negative = inhibition"
COc1ccccc1C(=O)NCC(=O)Nc1ccc2c(c1)CCC2,"inconclusive: 18.3 µM [activator, partial curve]",–
CCCCc1ccc(NC(=S)N2CCCC(CO)C2)cc1 (stereo not given),"inconclusive: 6.51 µM [activator, partial curve]",–
C/C(=N\NC(=O)c1ccccc1O)c1ccc(NC(=O)Cc2ccccc2)cc1,"inconclusive: 0.517 µM [activator, partial curve, poor fit]",–
C=CCNc1ncnc2ccc(Br)cc12,"inconclusive: 29.1 µM [inhibitor, single point]",–
Cc1ccc(C)c(S(=O)(=O)N2CCN(c3nc(-c4cccnc4)nc4ccccc34)CC2)c1,active: 18.3 µM,–
COC(=O)CSC1=C(C#N)C(c2ccc(C)o2)CC(=O)N1 (stereo not given),–,inactive: -4.24%
CCOC(=O)c1ccc2c(c1)n(CC)c(/C=C/N(C)c1ccccc1)[n+]2CC,"inconclusive: 13 µM [inhibitor, partial curve]",–
Cc1cc[n+](CC2OCc3ccccc3CO2)cc1,–,inactive: -10.7%
Clc1ccc2nc(-c3ccc4c(c3)OCO4)cn2c1,"inconclusive: 0.461 µM [activator, full curve]",–
Cc1cc(NC(=O)CN(C)CC(=O)Nc2ccc(F)c(F)c2F)no1,"inconclusive: 9.2 µM [activator, partial curve, poor fit]",–
CC(C)Cn1c(N)c(C(=O)COC(=O)c2cccn2C)c(=O)n(C)c1=O,active: 9.2 µM,–
CCN(CC)c1ccc(/C=N/Nc2ccc(C)cc2)c(O)c1,"inconclusive: 8.2 µM [activator, partial curve]",–
CCC(C)n1c(SCC(=O)NC2CCCC2)nc2ccccc2c1=O (stereo not given),–,inactive: -2.33%
COCCN(CCOC)c1ncnc2c1cnn2-c1ccccc1,"inconclusive: 23.1 µM [activator, single point]",–
Cc1ccnc(NC(=O)c2cccc(S(=O)(=O)NCc3ccccc3)c2)c1,"inconclusive: 29.1 µM [inhibitor, single point]",–
CCN1C(=O)/C(=C\c2cccs2)C(C(=O)OC)=C1C,"inconclusive: 16.4 µM [inhibitor, partial curve, poor fit]",–
O=C(NCC1(c2ccccc2)CCCC1)C1(c2ccccc2)CCCC1,–,inactive: -14.4%
COc1ccc(C(CNC(=O)c2cc(F)c(F)c(F)c2F)N2CCOCC2)cc1 (stereo not given),–,inactive: 11.8%
CC(C)Cc1nc(SCC(=O)N2CCCCC2)c2c(=O)n(C)c(=O)n(C)c2n1,–,inactive: 10.3%
CC1(c2nnc(Cc3ccccc3)o2)CC(c2ccccc2[N+](=O)[O-])=NO1 (stereo not given),"inconclusive: 22.4 µM [activator, single point]",–
Cc1cc(C)cc(-n2c(SC(C)C(=O)NCc3ccc4c(c3)OCO4)nc3ccccc3c2=O)c1 (stereo not given),"inconclusive: 25.9 µM [inhibitor, single point]",–
C=C(C)CCC1(C)NC(=O)N(c2ccccc2)N1 (stereo not given),"inconclusive: 10.3 µM [inhibitor, partial curve]",–
